In PubChem BioAssay AID1671190 (National Center for Advancing Translational Sciences (NCATS), 2021):
About 6,100 (1.1%) of roughly 580,000 compounds were called active. Inconclusive results, whose numbers are uncertain, are shown with a selection of clear calls. Calls come from the whole dose curve; as a rule, active = well fitted inhibition curve with a large enough effect; inconclusive = small, poorly fitted or top-dose-only effect, or another doubt; inactive = no such curve, though single readings can be large or run the other way. Potencies of inconclusive entries are doubtful fits and often do not repeat.

Sequences of proteins named here, by UniProt entry; tags and fusion partners are left off. A change or cut given only in a name is not applied to a line headed by its entry.
UniProt P18054: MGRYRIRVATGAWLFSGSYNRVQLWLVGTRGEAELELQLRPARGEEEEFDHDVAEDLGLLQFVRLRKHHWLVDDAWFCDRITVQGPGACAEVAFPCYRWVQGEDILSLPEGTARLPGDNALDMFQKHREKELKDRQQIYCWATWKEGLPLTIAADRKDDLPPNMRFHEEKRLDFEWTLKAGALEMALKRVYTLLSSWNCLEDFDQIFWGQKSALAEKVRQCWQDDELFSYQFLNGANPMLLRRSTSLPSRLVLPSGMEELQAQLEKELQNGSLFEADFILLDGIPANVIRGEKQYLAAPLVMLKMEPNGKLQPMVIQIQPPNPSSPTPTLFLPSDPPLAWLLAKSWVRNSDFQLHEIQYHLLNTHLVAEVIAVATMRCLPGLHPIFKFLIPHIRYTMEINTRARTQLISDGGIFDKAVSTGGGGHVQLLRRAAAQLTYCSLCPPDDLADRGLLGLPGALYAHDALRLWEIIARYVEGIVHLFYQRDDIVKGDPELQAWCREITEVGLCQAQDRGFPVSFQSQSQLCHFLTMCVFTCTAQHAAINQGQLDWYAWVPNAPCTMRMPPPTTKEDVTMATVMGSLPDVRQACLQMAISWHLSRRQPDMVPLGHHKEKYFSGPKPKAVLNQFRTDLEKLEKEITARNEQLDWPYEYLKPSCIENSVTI

These compounds were tested against Polyunsaturated fatty acid lipoxygenase ALOX12 (Homo sapiens) (UniProt P18054) (assay: Primary qHTS assay for inhibitors of human arachidonate 12S-lipoxygenase (ALOX12): Round 2). Conditions: purified 12hLO, xylenol orange hydroperoxide absorbance; activity change, negative = inhibition: at 108 µM (top of the series) unless noted.
Outline: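 Hydroperoxide product was detected by ferrous iron/xylenol orange as the 573 to 405 nm absorbance ratio. Arachidonic acid at 40 uM (final) was turned over for 30 min at room temperature by 150 nM human 12hLO, pH 7.0 Hepes buffer, after 15 min compound preincubation.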
% is set by controls: 0 for no effect and ±100 for the full control effect; potency is the fitted concentration of half-maximal effect.

Compound	activity change, negative = inhibition	Potency
CCOc1cc(/C=C(/C#N)C(=O)Nc2ccc(O)cc2)cc(Br)c1O	inactive: 0.566%	–
CCCCCC(=O)N1C[C@H](O)[C@@H](n2cc(-c3ccc(F)cc3)nn2)C[C@@H]1c1ccc(OC)cc1	–	inconclusive: 100 µM [inhibitor, single point]
CCOc1ccc(C(=O)N2CCN(c3cc(-c4ccc(Cl)cc4)[nH]n3)CC2)cc1	inactive: 30.1%	–
Cc1c(NC(=S)NC(=O)c2cccc(Br)c2)c(=O)n(-c2ccccc2)n1C	–	inconclusive: 2 µM [inhibitor, full curve, poor fit]
CC(C)N1C(=S)SC(C)(C)C1n1oc(=O)n(-c2ccc(Cl)c(Cl)c2)c1=O (stereo not given)	–	inconclusive: 28.2 µM [inhibitor, partial curve]
COCCCNC(=O)c1cnc2sc(N3CCCCC3)nn2c1=O	inactive: -5.82%	–
Cc1ccc2nc(-c3ccc(NC(=O)COc4ccc(Br)cc4Br)cc3)sc2c1	–	inconclusive: 50.1 µM [inhibitor, partial curve, poor fit]
CCOc1cc(N2CCOCC2)c(OCC)cc1NC(=O)COC(=O)c1cc(C)cc(C)c1	–	inconclusive: 44.7 µM [inhibitor, partial curve, poor fit]
Cn1cc(CC(=O)NC(C(N)=O)c2ccccc2)c2ccccc21 (stereo not given)	inactive: 18.8%	–
O=C(CN1CCOc2ccccc21)N1CCN(c2cccc(Cl)c2)CC1	inactive: 2.05%	–
c1c(CN2CCCN(CCCN3CCCC3)CC2)nn2c1CNCC2	inactive: 69.2%	–
Cc1ccc(NC(=O)N2CCCC(Cn3c(C4CC4)nc4cccnc43)C2)cc1C (stereo not given)	inactive: 14.8%	–
CCCCc1ccc(NC(=S)NCc2cccc(OC)c2)cc1	–	inconclusive: 31.6 µM [inhibitor, partial curve, poor fit]
O=C(N1CCCCC1)N1CCN(S(=O)(=O)c2ccc(Cl)cc2)CC1	inconclusive: -36.3% [inhibitor]	–
Cc1cc(C)n(-c2nc3ccccc3nc2N2CCN(C(=O)c3ccc(Cl)cc3)CC2)n1	–	inactive
N#C/C(=N\Nc1ccc(S(=O)(=O)N2CCCCCC2)cc1)C(N)=S	–	inconclusive: 7.08 µM [inhibitor, full curve]
C[C@@H](NC(=O)C1CCCC1)c1onc(-c2ccc(Cl)cc2)c1C(=O)O	inactive: -9.28% [at 176 µM]	–
N#CCSc1nc2ccc(N3CCCCC3)cc2c(=O)n1Cc1ccccc1	–	inconclusive: 39.8 µM [inhibitor, partial curve, poor fit]
Cc1ccc(NCC(=O)N/N=C/c2cc(O)ccc2[N+](=O)[O-])cc1	–	inconclusive: 100 µM [inhibitor, partial curve, poor fit]
Cc1noc(C)c1CN1CCN(C(=O)c2cn(C)nc2-c2ccc3c(c2)OCCCO3)CC1	inactive: 19%	–
COc1ccc(C2c3c(n[nH]c3C)C(=O)N2c2ccc(C)cc2)cc1 (stereo not given)	–	inconclusive: 28.2 µM [inhibitor, full curve, poor fit]
CCOc1ccc(NC(=S)NC(=O)/C=C/c2ccco2)cc1	inactive: -17.2%	–
Cc1ccc2oc(=O)c3cnn(CC(=O)NC4CCN(Cc5ccccc5)CC4)c3c2c1	inactive: 34.9%	–

Compound	activity change, negative = inhibition	Potency
CC(C)CCN1CCC(O)(c2csc(CN3CCN(C)CC3)n2)CC1	inactive: 13.4% [at 176 µM]	–
CCCCN(C)Cc1ccc(CC)cc1	–	inconclusive: 2.82 µM [inhibitor, full curve, poor fit]
CCOC(=O)c1ccc(NC(=O)CC(=O)Nc2ccc3nc4n(c(=O)c3c2)CCCCC4)cc1	–	inconclusive: 126 µM [inhibitor, partial curve, poor fit]
Cc1nn2c(C)c(C(=O)NCCc3ccccc3)cnc2c1-c1ccccc1	–	inconclusive: 141 µM [inhibitor, partial curve, poor fit]
O=C(O)c1occc1-c1cccs1	–	inconclusive: 14.1 µM [inhibitor, full curve]
Cn1nc(C(=O)Nc2nc3c(s2)CN(Cc2ccccc2)CC3)c2ccccc2c1=O	–	inconclusive: 39.8 µM [inhibitor, partial curve, poor fit]
Cc1cccc(C)c1NC(=O)C(c1ccc(C#N)cc1)n1c(=O)c(-c2ccco2)nc2ccccc21 (stereo not given)	–	active: 11.2 µM
O=C1OC[C@H]2CCCN2C(=O)[C@@H](CC(=O)N(CCO)Cc2ccccc2)C/C=C\CC[C@@H]1Cc1ccc(F)cc1	inactive: -29.3%	–
O=C1CO[C@H]2CN(Cc3ccc4c(c3)OCO4)C[C@H]2N1Cc1ccc(F)cc1	–	inconclusive: 126 µM [inhibitor, partial curve, poor fit]
COc1cc(C(=S)N2CCOCC2)cc(OC)c1OC(=O)c1ccccc1[N+](=O)[O-]	inactive: 0%	–
COc1ccccc1CNC(=O)Cn1c(=O)c2c(ncn2C2CCCC2)n(Cc2ccccc2)c1=O	–	inconclusive: 31.6 µM [inhibitor, partial curve]
CCN(CC)CCCNC(=O)CCC(=O)Nc1ccc2nc(N3CCCCC3)cc(C)c2c1	inactive: 1.62%	–
COc1ccc2[nH]c3nc(SCC(=O)Nc4cccc(NC(C)=O)c4)nnc3c2c1	inactive: 31.7%	–
Cc1ccccc1-n1ccnc1SCC(=O)O	–	inconclusive: 44.7 µM [inhibitor, partial curve, poor fit]
CCOC(=O)C1(C)CCCCCN1C(=O)c1ccc(OC)cc1 (stereo not given)	inactive: -8.99%	–
Cc1cc2c(cc1C)N(Cc1ccc(Cl)cc1)C1=NCCCN12	–	inconclusive: 44.7 µM [inhibitor, partial curve, poor fit]
O=C1CC(c2ccccc2)N(C(=O)CNC(=O)NCc2ccc(F)cc2)CCCCCCN1 (stereo not given)	inactive: -2.67%	–
COc1ccc2nc(C)cc(SCC(NC(=O)CN(C)C)C(=O)O)c2c1 (stereo not given)	inconclusive: -32.7% [inhibitor]	–
COC(=O)C(C)N1C(=O)S/C(=C\c2cc(C)n(-c3ccccn3)c2C)C1=O (stereo not given)	–	inconclusive: 50.1 µM [inhibitor, partial curve, poor fit]
COc1cccc(N2CC(=O)N(c3cccc(OC)c3)CC2=O)c1	inactive: 1.04%	–
Cc1ccc(CN(C)C(=O)NCc2ccc(S(=O)(=O)N3CCCCC3)cc2)cc1	inactive: -8.03%	–
CO[C@H]1[C@H](NC(=O)Cc2ccc(O)cc2)c2ccccc2C12CCNCC2	–	inconclusive: 22.4 µM [inhibitor, full curve, poor fit]

3 compounds drawn at random from those above:
Compound	activity change, negative = inhibition	Potency
COc1ccc2nc(C)cc(SCC(NC(=O)CN(C)C)C(=O)O)c2c1 (stereo not given)	inconclusive: -32.7% [inhibitor]	–
Cc1ccc(CN(C)C(=O)NCc2ccc(S(=O)(=O)N3CCCCC3)cc2)cc1	inactive: -8.03%	–
CCN(CC)CCCNC(=O)CCC(=O)Nc1ccc2nc(N3CCCCC3)cc(C)c2c1	inactive: 1.62%	–
